In this series the test system is C57BL/6 mice. Briefly: Movement speed and time in center region of cage (sociability check of the object recognition test). Format: in vivo. To be noted: day 1 of ORT.

1 substance from patent US12673971B2, “Amyloid-β aggregation inhibitor, pharmaceutical composition foramyloid-β aggregation disease, and use application of same” (O-FORCE CO., LTD, priority 2020, dated 2026) can be followed below.

Regarding GSGFK [Peptide 2], the movement speed entry (administration group Aβ25-35(+)/GSGFK(+) vs control groups, FIG. 5(A)) is recorded as “no difference in movement speed between the groups”. Moreover, the “percentage of time spent in a center region” value (administration group Aβ25-35(+)/GSGFK(+) vs negative control group, FIG. 5(B)) is “negative control group to which Aβ25-35 was administered had a slightly higher percentage of time spent than the administration group”.
